These are yes or no findings as the source states them, for the method shown. In cells and extracts the contact can be indirect. Some binding calls cover weakened binding; strength is not graded here.
What was measured:
aB-crystallin (CryAB) [1] = target: T1, aB-crystallin (CryAB) (UniProt P23928); assay: co-immunoprecipitation
T1 sequence (looked up): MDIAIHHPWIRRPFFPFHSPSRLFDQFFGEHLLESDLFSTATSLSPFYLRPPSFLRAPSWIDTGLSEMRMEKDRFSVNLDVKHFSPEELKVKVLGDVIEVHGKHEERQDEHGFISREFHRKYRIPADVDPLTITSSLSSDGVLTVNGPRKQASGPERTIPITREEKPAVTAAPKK

By UniProt entry, the sequences of proteins in these tests, tags left out. Where a name states a change or a piece, a line headed by the entry shows the natural chain unless it says otherwise.
UniProt Q01341: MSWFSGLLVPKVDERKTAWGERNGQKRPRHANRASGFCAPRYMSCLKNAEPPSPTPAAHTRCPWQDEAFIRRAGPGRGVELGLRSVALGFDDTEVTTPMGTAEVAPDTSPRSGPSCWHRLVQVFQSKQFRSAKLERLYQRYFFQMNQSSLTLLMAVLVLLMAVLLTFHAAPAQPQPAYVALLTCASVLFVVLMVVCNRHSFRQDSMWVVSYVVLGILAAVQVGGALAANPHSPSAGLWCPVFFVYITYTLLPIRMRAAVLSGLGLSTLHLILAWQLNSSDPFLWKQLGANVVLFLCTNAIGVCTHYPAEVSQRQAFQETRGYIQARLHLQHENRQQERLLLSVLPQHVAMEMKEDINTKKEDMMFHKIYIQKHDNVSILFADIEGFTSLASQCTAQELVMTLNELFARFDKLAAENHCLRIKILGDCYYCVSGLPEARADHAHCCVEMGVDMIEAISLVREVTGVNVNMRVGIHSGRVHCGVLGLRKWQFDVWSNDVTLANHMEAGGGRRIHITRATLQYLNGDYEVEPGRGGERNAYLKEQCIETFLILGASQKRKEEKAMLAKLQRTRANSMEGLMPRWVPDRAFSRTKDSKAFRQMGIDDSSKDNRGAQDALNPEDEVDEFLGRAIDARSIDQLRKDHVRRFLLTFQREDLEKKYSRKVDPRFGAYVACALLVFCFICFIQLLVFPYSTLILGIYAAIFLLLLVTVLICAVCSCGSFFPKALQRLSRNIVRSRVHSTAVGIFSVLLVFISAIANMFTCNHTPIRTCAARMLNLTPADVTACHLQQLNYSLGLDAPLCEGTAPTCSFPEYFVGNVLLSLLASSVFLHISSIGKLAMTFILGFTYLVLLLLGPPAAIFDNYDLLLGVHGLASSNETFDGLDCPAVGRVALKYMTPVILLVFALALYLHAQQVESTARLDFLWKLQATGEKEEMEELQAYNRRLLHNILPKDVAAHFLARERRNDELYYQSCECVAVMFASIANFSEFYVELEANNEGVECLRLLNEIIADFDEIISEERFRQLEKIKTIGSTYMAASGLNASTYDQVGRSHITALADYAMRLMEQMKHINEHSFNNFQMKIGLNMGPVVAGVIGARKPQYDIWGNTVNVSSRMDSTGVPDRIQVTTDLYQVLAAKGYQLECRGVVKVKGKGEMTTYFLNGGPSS

aB-crystallin (CryAB) [2] = target: T1, aB-crystallin (CryAB); assay: co-immunoprecipitation and immunoblotting, cardiac myocytes after C1C2 gene transfer
aB-crystallin (CryAB) [3] = target: T1, aB-crystallin (CryAB); assay: reciprocal co-immunoprecipitation and immunoblotting, cultured cardiac myocytes after adenovirus-mediated C1C2 gene transfer

binding (aB-crystallin (CryAB) [1]): binds
binding (aB-crystallin (CryAB) [2]): binds
binding (aB-crystallin (CryAB) [3]): binds
Substance: C1C2 fusion protein (cytoplasmic domains C1 and C2 of mouse adenylyl cyclase type 6 joined by a 12-amino-acid linker, C-terminal AU1 epitope tag) (from UniProt Q01341 350-1157 at identity 1.00))

Reference: patent publication US20190264189A1
